{"source": "patent US5446157A", "about": "“Boron difluoride compounds useful in photodynamic therapy and production of laser light” (priority 1993, dated 1995)", "key": {"[1]": {"test": "Laser activity (λlas, relative efficiency RE)", "settings": "for RE (relative efficiency): 100 assigned to R-6G"}, "[2]": {"test": "Continuous wave operation with argon ion pump laser: power efficiency", "settings": "CW, 5 watts all lines 457.9-514.5 nm"}, "[3]": {"test": "Laser characteristics of pyrromethene-BF2 complexes under flashlamp excitation (Table IV)", "settings": "DMA/MeOH; for λL: conc. × 10^4 M: I 1.5, II 2, III 2, Rhodamine 590 0.5"}, "[4]": {"test": "Power efficiency in Candela flashlamp dye laser", "settings": "Candela LFDL-8 laser, flashlamp, pulsewidth 2 μsec, risetime 0.7 μsec"}, "[5]": {"test": "Use as laser dye: lasing threshold and wavelength range in 10 mm flashlamp D-1100 dye laser (Phas-R Model D-1100)", "settings": "60 mg in 230 ml of H2O"}, "[6]": {"settings": "literature or known dye; cited from earlier work"}, "[7]": {"test": "P-BF2 dyes dispersed in acrylic co-polymer (solid-state laser)", "settings": "polymer matrix, 5 parts methyl methacrylate and 1 part hydroxypropyl acrylate; PMDEP-BF2 10^-4 M", "source_text": "Any laser dye of the present invention may be substituted for the dye in any of the examples of that incorporated patent. The matrix generally includes solid polymeric host laser rods prepared using bulk polymerization of acrylic acid ester comonomers."}}, "note": "“Also recorded” adds a separate entry of the source. Where a name gives a salt, the structure may show the parent alone. Read-outs that look alike come from different tables or passages of the source."}
{"smiles": "CCC1=C(C)C2=C(C3CCCCC3)c3c(C)c(CC)c(C)n3[B-](F)(F)[N+]2=C1C", "note": "[Compound 7q, 1,3,5,7-tetramethyl-2,6-diethyl-8-cyclohexylpyrromethene-BF2 complex]", "values": [{"measurement": "laser activity", "setting": "[1]", "result": "no laser activity; also recorded: lack of laser activity"}]}
{"smiles": "CCC1=C(C)C2=C(COC(C)=O)c3c(C)c(CC)c(C)n3[B-](F)(F)[N+]2=C1C", "note": "[Compound 7r]", "values": [{"measurement": "λlas", "setting": "[1]; 2 × 10^-4 M in ethanol", "result": 605, "unit": "nm"}, {"measurement": "RE (relative efficiency)", "setting": "[1]", "result": 30}]}
{"smiles": "COc1ccc(C2=C3C(C)=CC(C)=[N+]3[B-](F)(F)n3c(C)cc(C)c32)cc1", "note": "[Compound 7t, 1,3,5,7-tetramethyl-8-p-methoxyphenylpyrromethene-BF2 complex]", "values": [{"measurement": "λlas", "setting": "[1]; 2 × 10^-4 M in ethanol", "result": 547, "unit": "nm"}, {"measurement": "RE (relative efficiency)", "setting": "[1]", "result": 50}]}
{"smiles": "CCC1=C(c2ccccc2)C2=Cc3c(-c4ccccc4)c(CC)c(C)n3[B-](F)(F)[N+]2=C1C", "note": "[Compound 7u]", "values": [{"measurement": "laser activity", "setting": "[1]", "result": "Low lasing activity"}, {"measurement": "λlas", "setting": "[1]; 2 × 10^-4 M in ethanol", "result": 582, "unit": "nm"}, {"measurement": "RE (relative efficiency)", "setting": "[1]", "result": 10}]}
{"smiles": "CC1=[N+]2C(=Cc3c(-c4ccccc4)c(-c4ccccc4)c(C)n3[B-]2(F)F)C(c2ccccc2)=C1c1ccccc1", "note": "[Compound 7v, 1,2,6,7-tetraphenyl-3,5-dimethylpyrromethene-BF2 complex]", "values": [{"measurement": "laser activity", "setting": "[1]", "result": "absence of lasing activity"}]}
{"smiles": "CC1=[N+]2C(=Cc3c(-c4ccccc4)cc(C)n3[B-]2(F)F)C(c2ccccc2)=C1", "note": "[Compound 7w, 1,7-diphenyl-3,5-dimethylpyrromethene-BF2 complex]", "values": [{"measurement": "laser activity", "setting": "[1]", "result": "Low lasing activity"}, {"measurement": "λlas", "setting": "[1]; 2 × 10^-4 M in ethanol", "result": 580, "unit": "nm"}, {"measurement": "RE (relative efficiency)", "setting": "[1]", "result": 5}]}
{"smiles": "CC1=C(C(C)(C)C)C(C)=[N+]2C1=Cc1c(C)c(C(C)(C)C)c(C)n1[B-]2(F)F", "note": "[Compound 7x, 1,3,5,7-tetramethyl-2,6-di-tert-butylpyrromethene-BF2 complex]", "values": [{"measurement": "λlas", "setting": "[1]; 2 × 10^-4 M in ethanol", "result": 580, "unit": "nm"}, {"measurement": "RE (relative efficiency)", "setting": "[1]", "result": 30}]}
{"smiles": "CCC1=C(CC)C(C)=[N+]2C1=Cc1c(CC)c(CC)c(C)n1[B-]2(F)F", "note": "[Compound 7y, 1,2,6,7-tetraethyl-3,5-dimethylpyrromethene-BF2 complex]", "values": [{"measurement": "λlas", "setting": "[1]; 2 × 10^-4 M in ethanol", "result": 580, "unit": "nm"}, {"measurement": "RE (relative efficiency)", "setting": "[1]", "result": 40}]}
{"smiles": "CC1=C(C)C(C)=[N+]2C1=Cc1c(C)c(C)c(C)n1[B-]2(F)F", "note": "[Compound 7z, 1,2,3,5,6,7-hexamethylpyrromethene-BF2 complex]", "values": [{"measurement": "λlas", "setting": "[1]; 2 × 10^-4 M in ethanol", "result": 570, "unit": "nm"}, {"measurement": "RE (relative efficiency)", "setting": "[1]", "result": 30}]}
{"smiles": "CC1=C(S(=O)(=O)O)C(C)=[N+]2C1=C(C)c1c(C)c(S(=O)(=O)O)c(C)n1[B-]2(F)F", "note": "[Compound 16, 1,3,5,7,8-pentamethylpyrromethene-2,6-disulfonic acid-BF2 complex]", "values": [{"measurement": "RE (relative efficiency)", "setting": "[1]", "result": 95}]}
{"smiles": "CCC1=C2C(C)=C(S(=O)(=O)O)C(C)=[N+]2[B-](F)(F)n2c(C)c(S(=O)(=O)O)c(C)c21", "note": "[Compound 17, 1,3,5,7-tetramethyl-8-ethylpyrromethene-2,6-disulfonic acid-BF2 complex]", "values": [{"measurement": "RE (relative efficiency)", "setting": "[1]", "result": 50}]}
{"smiles": "COS(=O)(=O)C1=C(C)C2=C(C)c3c(C)c(S(=O)(=O)OC)c(C)n3[B-](F)(F)[N+]2=C1C", "note": "[Compound 18]", "values": [{"measurement": "RE (relative efficiency)", "setting": "[1]", "result": 35}]}
{"smiles": "CCOC(=O)C1=C(C)C2=C(CC)c3c(C)c(C(=O)OCC)c(C)n3[B-](F)(F)[N+]2=C1C", "note": "[Compound 19]", "values": [{"measurement": "RE (relative efficiency)", "setting": "[1]", "result": 50}]}
{"smiles": "CCN=c1cc2oc3cc(NCC)c(C)cc3c(-c3ccccc3C(=O)OCC)c-2cc1C", "note": "[Compound R-6G, reference compound]", "values": [{"measurement": "power efficiency / power output", "setting": "[2]", "result": 32, "unit": "%"}]}
{"smiles": "CCC1=C2C(C)=CC(C)=[N+]2[B-](F)(F)n2c(C)cc(C)c21", "note": "[III, 4,4-difluoro-1,3,5,7-tetramethyl-8-ethyl-4-bora-3a,4a-diaza-s-indacene]", "values": [{"measurement": "Vth", "setting": "[3]", "result": 10, "unit": "kV"}, {"measurement": "Eo (V = 18 kV)", "setting": "[3]", "result": 90, "unit": "mJ"}, {"measurement": "λL", "setting": "[3]", "result": 540, "unit": "nm"}]}
{"smiles": "CC1=C(S(=O)(=O)O)C(C)=[N+]2C1=C(C)c1c(C)c(S(=O)(=O)O)c(C)n1[B-]2(F)F", "note": "[PMPDS-BF2, Disodium salt of 4,4-difluoro-1,3,5,7,8-pentamethyl-4-bora-3a,4a-diaza-s-indacene-2,6-disulfonic acid monohydrate]", "values": [{"measurement": "power efficiency / power output", "setting": "[2]", "result": 45, "unit": "%"}, {"measurement": "power efficiency obtained from R-6G (relative)", "setting": "[4]", "result": 145, "unit": "%"}, {"measurement": "Vth", "setting": "[3]", "result": 10, "unit": "kV"}, {"measurement": "Eo (V = 18 kV)", "setting": "[3]", "result": 80, "unit": "mJ"}, {"measurement": "λL", "setting": "[3]", "result": 555, "unit": "nm"}, {"measurement": "lasing threshold", "setting": "[5]", "result": 10, "unit": "kV"}, {"measurement": "lasing wavelength range", "setting": "[5]", "result": "545-585 nm"}]}
{"smiles": "CCN=c1cc2oc3cc(NCC)c(C)cc3c(-c3ccccc3C(=O)OCC)c-2cc1C", "note": "[Rhodamine 590, reference compound]", "values": [{"measurement": "Vth", "setting": "[3]", "result": 8, "unit": "kV"}, {"measurement": "Eo (V = 18 kV)", "setting": "[3]", "result": 100, "unit": "mJ"}, {"measurement": "λL", "setting": "[3]", "result": 578, "unit": "nm"}]}
{"smiles": "F[B-]1(F)N2C=CC=CC2=Nc2cccc[n+]21", "note": "[boratriazinium salt, reference compound]", "values": [{"measurement": "λlas", "setting": "[6]", "result": 420, "unit": "nm"}]}
{"smiles": "CCN(CC)c1ccc2c(-c3ccccc3C(=O)O)c3ccc(=[N+](CC)CC)cc-3oc2c1", "note": "[rhodamine-B, reference compound]", "values": [{"measurement": "λlas", "setting": "[1]; comparator of dye 7aa, solvent not stated", "result": 611, "unit": "nm"}]}
{"smiles": "CCN(CC)c1ccc2c(-c3ccc(S(=O)(=O)O)cc3S(=O)(=O)[O-])c3ccc(=[N+](CC)CC)cc-3oc2c1", "note": "[sulforhodamine-B, reference compound]", "values": [{"measurement": "power efficiency", "setting": "[7]", "result": 37, "unit": "%"}]}
